From the supplement of paper PMC12282887
Values are raw readings; no control value is given beside them.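 For antimicrobials the highest concentration approximated the MIC. Most other compounds topped out at 500 µM, and known inducer-like compounds reached up to 1 mM. Inocula for deletion strains were tenfold smaller, and any well growing below 10% of the overall median was considered non-growing.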

Test system: Escherichia coli BW25113
Assay: growth (OD600 area under curve, 8 h) (OD600 x h); higher = more growth
Procedure: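 E. coli BW25113 reporter strains (wild type, ΔmarA, ΔsoxS, Δrob, each carrying one of 8 lux reporter plasmids) were grown in 40 µl LB in 384-well plates at 37°C, 800 rpm, with each compound at 4 two-fold concentrations, in biological duplicates. Growth is the baseline-corrected OD600 area under the curve over 8 h (0-8 h WT, 1-9 h deletion strains).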

NCC[C@H](O)C(=O)N[C@@H]1C[C@H](N)[C@@H](O[C@H]2O[C@H](CN)[C@@H](O)[C@H](O)[C@H]2O)[C@H](O)[C@H]1O[C@H]1O[C@H](CO)[C@@H](O)[C@H](N)[C@H]1O [Amikacin]
growth
Conditions | reporter plasmid: EVC | reporter plasmid: acrABp | reporter plasmid: marRABp | reporter plasmid: micFp | reporter plasmid: ompFp | reporter plasmid: robp | reporter plasmid: soxSp | reporter plasmid: tolCp
0.07 µg/ml, genetic background: wild type | 2.69 | 3.3 | 3.365 | 2.81 | 3.09 | 3.33 | 2.64 | 2.772
0.07 µg/ml, genetic background: ΔmarA | 2.89 | 4.08 | 3.79 | 3.07 | 3.64 | 3.95 | 2.95 | 2.89
0.07 µg/ml, genetic background: Δrob | 2.71 | 3.18 | 3.5 | 2.66 | 2.71 | 2.89 | 2.31 | 2.76
0.07 µg/ml, genetic background: ΔsoxS | 2.86 | 2.98 | 3.17 | 2.61 | 3.11 | 3.28 | 3.1 | 2.67
0.15 µg/ml, genetic background: wild type | 2.699 | 3.32 | 3.33 | 2.63 | 2.992 | 3.31 | 2.66 | 2.79
0.15 µg/ml, genetic background: ΔmarA | 2.97 | 4.09 | 3.7 | 3.09 | 3.47 | 3.72 | 2.56 | 2.83
0.15 µg/ml, genetic background: Δrob | 2.75 | 2.87 | 3.19 | 2.59 | 2.54 | 2.68 | 2.4 | 2.53
0.15 µg/ml, genetic background: ΔsoxS | 2.89 | 2.83 | 3.07 | 2.48 | 3.08 | 3.31 | 3.06 | 2.601
0.29 µg/ml, genetic background: wild type | 2.28 | 2.71 | 3.18 | 1.82 | 2.5 | 2.93 | 2.19 | 2.35
0.29 µg/ml, genetic background: ΔmarA | 2.27 | 3.87 | 3.32 | 2.38 | 3.03 | 3.74 | 1.86 | 1.91
0.29 µg/ml, genetic background: Δrob | 2.4 | 2.82 | 3.12 | 2.11 | 2.37 | 2.36 | 1.57 | 2.01
0.29 µg/ml, genetic background: ΔsoxS | 2.56 | 2.73 | 3.06 | 2.16 | 2.68 | 3.22 | 2.56 | 2.19
0.59 µg/ml, genetic background: wild type | 0.271 | 0.0295 | -0.0015 | -0.00258 | -0.000494 | 0.0163 | -0.0217 | 0.491
0.59 µg/ml, genetic background: ΔmarA | 0.265 | -0.0187 | 0.0198 | 0.281 | 0.025 | 0.735 | -0.033 | 0.222
0.59 µg/ml, genetic background: Δrob | 0.377 | 0.0115 | 0.027 | 0.0306 | 0.00638 | -0.0195 | -0.00888 | 0.195
0.59 µg/ml, genetic background: ΔsoxS | 0.389 | 0.0207 | 0.0277 | 0.0578 | -0.022 | 0.0275 | 0.00942 | 0.397
